Shown are survivors of the treated group in tumour-free mice. Counts of survivors are from the toxicity check (mostly the fifth day) where no day follows; animals may have died later. Schedules are NCI's codes, read here as Q, the interval in days (D) or hours (H), X, the number of doses.
Test system: CD2F1 mice, nontumored, toxicity/survival
Assay: NCI In Vivo Anticancer Drug Screen. Data for tumor model Nontumored Animals (Toxicity Test) in CD2F1 (CDF1) mice

## COc1ccc(CC2C(=O)NC(C)C(=O)N(C)C3C(=O)N(C)C(Cc4ccc(O)c(c4)Oc4ccc(cc4)C3O)C(=O)NC(C)C(=O)NC(C)C(=O)N2C)cc1 (stereo unspecified)
dose: 0.03 mg/kg/injection, schedule: Q01DX009 (ip), vehicle: Klucel (hydroxypropylcellulose) (HPC)
  survivor count: 6 of 6
dose: 0.03 mg/kg/injection, schedule: Q01DX009 (ip), vehicle: saline + alcohol
  survivor count: 5 of 6
dose: 0.06 mg/kg/injection, schedule: Q01DX009 (ip), vehicle: Klucel (hydroxypropylcellulose) (HPC)
  survivor count: 6 of 6
dose: 0.06 mg/kg/injection, schedule: Q01DX009 (ip), vehicle: saline + alcohol
  survivor count: 6 of 6
dose: 0.12 mg/kg/injection, schedule: Q01DX009 (ip), vehicle: Klucel (hydroxypropylcellulose) (HPC)
  survivor count: 5 of 6
dose: 0.12 mg/kg/injection, schedule: Q01DX009 (ip), vehicle: saline + alcohol
  survivor count: 6 of 6
dose: 0.13 mg/kg/injection, schedule: Q03HX024 (ip), vehicle: other
  survivor count: 8 of 8
dose: 0.25 mg/kg/injection, schedule: Q01DX005 (ip), vehicle: other
  survivor count: 8 of 8
dose: 0.25 mg/kg/injection, schedule: Q01DX005 (iv), vehicle: other
  survivor count: 8 of 8
dose: 0.25 mg/kg/injection, schedule: Q01DX009 (ip), vehicle: Klucel (hydroxypropylcellulose) (HPC)
  survivor count: 6 of 6
dose: 0.25 mg/kg/injection, schedule: Q01DX009 (ip), vehicle: other
  survivor count: 8 of 8
dose: 0.25 mg/kg/injection, schedule: Q01DX009 (ip), vehicle: saline + alcohol
  survivor count: 6 of 6
dose: 0.25 mg/kg/injection, schedule: Q01DX009 (sc), vehicle: other
  survivor count: 8 of 8
dose: 0.25 mg/kg/injection, schedule: Q03HX008 (ip), vehicle: other
  survivor count: 8 of 8
dose: 0.25 mg/kg/injection, schedule: Q03HX016 (ip), vehicle: other
  survivor count: 8 of 8
dose: 0.25 mg/kg/injection, schedule: Q03HX024 (ip), vehicle: other
  survivor count: 7 of 8
dose: 0.5 mg/kg/injection, schedule: Q01DX005 (ip), vehicle: other
  survivor count: 8 of 8
dose: 0.5 mg/kg/injection, schedule: Q01DX005 (iv), vehicle: other
  survivor count: 8 of 8
dose: 0.5 mg/kg/injection, schedule: Q01DX009 (ip), vehicle: Klucel (hydroxypropylcellulose) (HPC)
  survivor count: 5 of 6
dose: 0.5 mg/kg/injection, schedule: Q01DX009 (ip), vehicle: other
  survivor count: 8 of 8
dose: 0.5 mg/kg/injection, schedule: Q01DX009 (ip), vehicle: saline + alcohol
  survivor count: 6 of 6
dose: 0.5 mg/kg/injection, schedule: Q01DX009 (oral), vehicle: other
  survivor count: 8 of 8
dose: 0.5 mg/kg/injection, schedule: Q01DX009 (sc), vehicle: other
  survivor count: 8 of 8
dose: 0.5 mg/kg/injection, schedule: Q03HX008 (ip), vehicle: other
  survivor count: 5 of 8
dose: 0.5 mg/kg/injection, schedule: Q03HX016 (ip), vehicle: other
  survivor count: 7 of 8
dose: 0.5 mg/kg/injection, schedule: Q03HX024 (ip), vehicle: other
  survivor count: 6 of 8
dose: 0.5 mg/kg/injection, schedule: Q04DX003 (ip), vehicle: other
  survivor count: 8 of 8
dose: 1.0 mg/kg/injection, schedule: Q01DX001 (ip), vehicle: other
  survivor count: 8 of 8
dose: 1.0 mg/kg/injection, schedule: Q01DX001 (oral), vehicle: other
  survivor count: 8 of 8
dose: 1.0 mg/kg/injection, schedule: Q01DX005 (ip), vehicle: other
  survivor count: 8 of 8
dose: 1.0 mg/kg/injection, schedule: Q01DX005 (iv), vehicle: other
  survivor count: 8 of 8
dose: 1.0 mg/kg/injection, schedule: Q01DX009 (ip), vehicle: Klucel (hydroxypropylcellulose) (HPC)
  survivor count: 4 of 6
dose: 1.0 mg/kg/injection, schedule: Q01DX009 (ip), vehicle: other
  survivor count: 8 of 8
dose: 1.0 mg/kg/injection, schedule: Q01DX009 (ip), vehicle: saline + alcohol
  survivor count: 6 of 6
dose: 1.0 mg/kg/injection, schedule: Q01DX009 (oral), vehicle: other
  survivor count: 8 of 8
dose: 1.0 mg/kg/injection, schedule: Q01DX009 (sc), vehicle: other
  survivor count: 8 of 8
dose: 1.0 mg/kg/injection, schedule: Q03HX008 (ip), vehicle: other
  survivor count: 6 of 8
dose: 1.0 mg/kg/injection, schedule: Q03HX016 (ip), vehicle: other
  survivor count: 4 of 8
dose: 1.0 mg/kg/injection, schedule: Q03HX024 (ip), vehicle: other
  survivor count: 4 of 8
dose: 1.0 mg/kg/injection, schedule: Q04DX003 (ip), vehicle: other
  survivor count: 8 of 8
dose: 1.0 mg/kg/injection, schedule: Q08DX002 (ip), vehicle: other
  survivor count: 8 of 8
dose: 2.0 mg/kg/injection, schedule: Q01DX001 (ip), vehicle: other
  survivor count: 8 of 8
dose: 2.0 mg/kg/injection, schedule: Q01DX001 (oral), vehicle: other
  survivor count: 8 of 8
dose: 2.0 mg/kg/injection, schedule: Q01DX005 (ip), vehicle: other
  survivor count: 8 of 8
dose: 2.0 mg/kg/injection, schedule: Q01DX005 (iv), vehicle: other
  survivor count: 8 of 8
dose: 2.0 mg/kg/injection, schedule: Q01DX009 (ip), vehicle: Klucel (hydroxypropylcellulose) (HPC)
  survivor count: 6 of 6
dose: 2.0 mg/kg/injection, schedule: Q01DX009 (ip), vehicle: other
  survivor count: 8 of 8
dose: 2.0 mg/kg/injection, schedule: Q01DX009 (ip), vehicle: saline + alcohol
  survivor count: 5 of 6
dose: 2.0 mg/kg/injection, schedule: Q01DX009 (oral), vehicle: other
  survivor count: 8 of 8
dose: 2.0 mg/kg/injection, schedule: Q01DX009 (sc), vehicle: other
  survivor count: 8 of 8
dose: 2.0 mg/kg/injection, schedule: Q03HX008 (ip), vehicle: other
  survivor count: 0 of 8
dose: 2.0 mg/kg/injection, schedule: Q03HX016 (ip), vehicle: other
  survivor count: 0 of 8
dose: 2.0 mg/kg/injection, schedule: Q03HX024 (ip), vehicle: other
  survivor count: 0 of 8
dose: 2.0 mg/kg/injection, schedule: Q04DX003 (ip), vehicle: other
  survivor count: 8 of 8
dose: 2.0 mg/kg/injection, schedule: Q08DX002 (ip), vehicle: other
  survivor count: 8 of 8
dose: 4.0 mg/kg/injection, schedule: Q01DX001 (ip), vehicle: other
  survivor count: 8 of 8
dose: 4.0 mg/kg/injection, schedule: Q01DX001 (oral), vehicle: other
  survivor count: 8 of 8
dose: 4.0 mg/kg/injection, schedule: Q01DX005 (ip), vehicle: other
  survivor count: 8 of 8
dose: 4.0 mg/kg/injection, schedule: Q01DX005 (iv), vehicle: other
  survivor count: 2 of 8
dose: 4.0 mg/kg/injection, schedule: Q01DX009 (ip), vehicle: Klucel (hydroxypropylcellulose) (HPC)
  survivor count: 5 of 6
dose: 4.0 mg/kg/injection, schedule: Q01DX009 (ip), vehicle: other
  survivor count: 7 of 8
dose: 4.0 mg/kg/injection, schedule: Q01DX009 (ip), vehicle: saline + alcohol
  survivor count: 3 of 6
dose: 4.0 mg/kg/injection, schedule: Q01DX009 (oral), vehicle: other
  survivor count: 8 of 8
dose: 4.0 mg/kg/injection, schedule: Q01DX009 (sc), vehicle: other
  survivor count: 7 of 8
dose: 4.0 mg/kg/injection, schedule: Q03HX008 (ip), vehicle: other
  survivor count: 0 of 8
dose: 4.0 mg/kg/injection, schedule: Q03HX016 (ip), vehicle: other
  survivor count: 0 of 8
dose: 4.0 mg/kg/injection, schedule: Q04DX003 (ip), vehicle: other
  survivor count: 8 of 8
dose: 4.0 mg/kg/injection, schedule: Q08DX002 (ip), vehicle: other
  survivor count: 8 of 8
dose: 8.0 mg/kg/injection, schedule: Q01DX001 (ip), vehicle: other
  survivor count: 8 of 8
dose: 8.0 mg/kg/injection, schedule: Q01DX001 (oral), vehicle: other
  survivor count: 8 of 8
dose: 8.0 mg/kg/injection, schedule: Q01DX009 (oral), vehicle: other
  survivor count: 8 of 8
dose: 8.0 mg/kg/injection, schedule: Q04DX003 (ip), vehicle: other
  survivor count: 8 of 8
dose: 8.0 mg/kg/injection, schedule: Q08DX002 (ip), vehicle: other
  survivor count: 7 of 8
dose: 16.0 mg/kg/injection, schedule: Q01DX001 (ip), vehicle: other
  survivor count: 3 of 8
dose: 16.0 mg/kg/injection, schedule: Q01DX001 (oral), vehicle: other
  survivor count: 8 of 8
dose: 16.0 mg/kg/injection, schedule: Q08DX002 (ip), vehicle: other
  survivor count: 3 of 8
